The source of these data is PMC3865339.

By UniProt entry, the sequences of proteins in these tests, tags left out.
UniProt Q99497, whole entry: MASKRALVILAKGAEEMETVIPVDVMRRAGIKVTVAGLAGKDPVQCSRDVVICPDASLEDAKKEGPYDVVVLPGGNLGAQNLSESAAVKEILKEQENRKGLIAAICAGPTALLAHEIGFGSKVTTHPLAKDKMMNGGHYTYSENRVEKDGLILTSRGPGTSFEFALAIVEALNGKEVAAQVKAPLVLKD
UniProt P08047, whole entry: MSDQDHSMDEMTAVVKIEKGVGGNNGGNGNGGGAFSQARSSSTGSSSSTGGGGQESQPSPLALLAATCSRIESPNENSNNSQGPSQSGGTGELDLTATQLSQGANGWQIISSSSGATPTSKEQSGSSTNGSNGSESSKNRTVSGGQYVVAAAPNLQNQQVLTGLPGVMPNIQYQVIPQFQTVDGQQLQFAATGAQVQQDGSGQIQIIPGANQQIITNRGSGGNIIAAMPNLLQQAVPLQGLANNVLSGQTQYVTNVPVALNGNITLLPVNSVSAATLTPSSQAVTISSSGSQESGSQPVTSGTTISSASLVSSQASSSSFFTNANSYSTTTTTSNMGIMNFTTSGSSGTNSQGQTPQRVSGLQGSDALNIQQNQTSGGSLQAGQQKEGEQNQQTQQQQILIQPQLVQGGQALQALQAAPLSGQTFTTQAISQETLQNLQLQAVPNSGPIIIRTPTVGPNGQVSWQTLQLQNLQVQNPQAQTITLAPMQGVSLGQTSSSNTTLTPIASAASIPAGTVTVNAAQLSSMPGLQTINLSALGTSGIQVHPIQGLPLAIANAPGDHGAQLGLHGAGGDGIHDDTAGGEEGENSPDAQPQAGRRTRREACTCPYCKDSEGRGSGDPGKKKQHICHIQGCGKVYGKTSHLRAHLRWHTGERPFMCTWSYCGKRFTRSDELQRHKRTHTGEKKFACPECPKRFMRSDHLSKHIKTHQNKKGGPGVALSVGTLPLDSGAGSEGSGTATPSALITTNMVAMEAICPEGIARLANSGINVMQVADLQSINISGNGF

In one data set the target is recombinant DJ-1 (UniProt Q99497). In words: EMSA. To be noted: 100 ng recombinant DJ-1 alone; EMSA with IRDye800 probe as described previously (ref 26), buffer not given; antibody incubation 30 min at 4 C; recombinant protein; label: IRDye800 (probe), unlabeled as competitor. (Mobility shift assays separate free from complexed probe on a gel.)
Data set [1] deals with RREB1 + DJ-1. In words: EMSA supershift. To be noted: SH-SY5Y nuclear extract, anti-RREB1 supershift, anti-DJ-1 altered shift; EMSA with IRDye800 probe as described previously (ref 26), buffer not given; antibody incubation 30 min at 4 C; protein in an extract; label: IRDye800 (probe), unlabeled as competitor.
In data set [2] the target is Sp1 (UniProt P08047). In words: EMSA with antibody. To be noted: SH-SY5Y nuclear extract, anti-Sp1 reduces shifted band; EMSA with IRDye800 probe as described previously (ref 26), buffer not given; antibody incubation 30 min at 4 C; protein in an extract; label: IRDye800 (probe), unlabeled as competitor.
In data set [3] the test system is RREB1 + DJ-1. In words: competition with a labelled probe. To be noted: 50x and 100x unlabeled mutant vs labeled N1, SH-SY5Y nuclear extract, proteins identified by antibodies in Fig. 3D; EMSA with IRDye800 probe as described previously (ref 26), buffer not given; antibody incubation 30 min at 4 C; protein in an extract; label: unlabeled competitor.
The target in data set [4] is Sp1 (UniProt P08047). In words: competition with a labelled probe. To be noted: 50x and 100x unlabeled mutant vs labeled N1, SH-SY5Y nuclear extract, protein identified by antibody in Fig. 3D; EMSA with IRDye800 probe as described previously (ref 26), buffer not given; antibody incubation 30 min at 4 C; protein in an extract; label: unlabeled competitor.

Construct, isoform or probe ends are uncertain for at least one entry. For some assays here: A negative result means that nothing was seen under these conditions. For some assays here: Where cells or extracts were used, other partners may take part. For some assays here: At least one verdict rests on a figure or table, not on a statement of the authors.

On to “GCCGCCCCCCCAACCCCCCCACCCCGCCTC (double strand) [hRRE (CCK promoter RRE/Sp1, wild type)]”, for which the binding result with recombinant DJ-1 was “no binding”; with RREB1 + DJ-1 [1], “binds”; with Sp1 [2], “binds”.

Take “GCCGCCCCCCCGGCCCCCCCACCCCTCTTC (double strand) [hRREm (mutated RRE and Sp1)]”: the binding result in the data set on RREB1 + DJ-1 [3] and with Sp1 [4] was “no binding” throughout.
